Experimental data from publication PMC9233679.
Results are given in words; binding and its absence hold for the method and conditions named. Binding seen in cells or lysates may run through a third protein. Some results given as binding are weak or reduced against the parent protein; the word gives no strength.

Experiments:
[1] = molecular target: T1, S100A11 (human (endogenous in BxPC3 and SW1990)) (UniProt P31949); experiment: proximity ligation; Duolink PLA in fixed, permeabilised BxPC3 or SW1990 cells; primary antibodies anti-S100A11 and anti-SMYD3; endogenous proteins
T1 sequence: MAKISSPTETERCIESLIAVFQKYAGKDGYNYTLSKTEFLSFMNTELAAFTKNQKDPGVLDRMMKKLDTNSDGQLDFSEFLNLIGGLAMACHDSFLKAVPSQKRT

[2] = molecular target: T1, S100A11 (human (endogenous in BxPC3 and SW1990)); experiment: co-IP; 3 mg total cellular protein from PDAC cells; lysis buffer 20 mM Tris-HCl, 150 mM NaCl, 2 mM EDTA, 1% Triton X-100; 2 ug S100A11 antibody or IgG overnight at 4 °C, Protein-A/G beads; western blotting

- binding [1]: binds
- binding [2]: binds
B1: SMYD3 (enzyme, UniProt Q9H7B4 1-428)
chain: MEPLKVEKFATAKRGNGLRAVTPLRPGELLFRSDPLAYTVCKGSRGVVCDRCLLGKEKLMRCSQCRVAKYCSAKCQKKAWPDHKRECKCLKSCKPRYPPDSVRLLGRVVFKLMDGAPSESEKLYSFYDLESNINKLTEDKKEGLRQLVMTFQHFMREEIQDASQLPPAFDLFEAFAKVICNSFTICNAEMQEVGVGLYPSISLLNHSCDPNCSIVFNGPHLLLRAVRDIEVGEELTICYLDMLMTSEERRKQLRDQYCFECDCFRCQTQDKDADMLTGDEQVWKEVQESLKKIEELKAHWKWEQVLAMCQAIISSNSERLPDINIYQLKVLDCAMDACINLGLLEEALFYGTRTMEPYRIFFPGSHPVRGVQVMKVGKLQLHQGMFPQAMKNLRLAFDIMRVTHGREHSLIEDLILLLEECDANIRAS
